Source: the supplement of paper PMC10849652
The other results are listed elsewhere or left out.

Chains of the proteins cited; added tags and fusions are not shown. Lines headed by an entry give the natural chain unless they say otherwise; changes in a name come on top.
UniProt Q9UKB3: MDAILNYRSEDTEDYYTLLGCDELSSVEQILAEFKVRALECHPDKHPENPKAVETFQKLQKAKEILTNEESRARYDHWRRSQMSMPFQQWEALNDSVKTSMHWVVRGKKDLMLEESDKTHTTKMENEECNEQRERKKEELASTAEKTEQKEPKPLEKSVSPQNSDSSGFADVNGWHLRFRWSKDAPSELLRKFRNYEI
UniProt Q8TEA8: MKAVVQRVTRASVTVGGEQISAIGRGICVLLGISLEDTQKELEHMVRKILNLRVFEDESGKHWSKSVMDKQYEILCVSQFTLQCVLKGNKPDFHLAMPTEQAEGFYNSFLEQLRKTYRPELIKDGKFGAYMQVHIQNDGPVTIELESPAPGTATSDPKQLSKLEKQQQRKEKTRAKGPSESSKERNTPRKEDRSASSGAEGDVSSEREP
UniProt Q9NYP3: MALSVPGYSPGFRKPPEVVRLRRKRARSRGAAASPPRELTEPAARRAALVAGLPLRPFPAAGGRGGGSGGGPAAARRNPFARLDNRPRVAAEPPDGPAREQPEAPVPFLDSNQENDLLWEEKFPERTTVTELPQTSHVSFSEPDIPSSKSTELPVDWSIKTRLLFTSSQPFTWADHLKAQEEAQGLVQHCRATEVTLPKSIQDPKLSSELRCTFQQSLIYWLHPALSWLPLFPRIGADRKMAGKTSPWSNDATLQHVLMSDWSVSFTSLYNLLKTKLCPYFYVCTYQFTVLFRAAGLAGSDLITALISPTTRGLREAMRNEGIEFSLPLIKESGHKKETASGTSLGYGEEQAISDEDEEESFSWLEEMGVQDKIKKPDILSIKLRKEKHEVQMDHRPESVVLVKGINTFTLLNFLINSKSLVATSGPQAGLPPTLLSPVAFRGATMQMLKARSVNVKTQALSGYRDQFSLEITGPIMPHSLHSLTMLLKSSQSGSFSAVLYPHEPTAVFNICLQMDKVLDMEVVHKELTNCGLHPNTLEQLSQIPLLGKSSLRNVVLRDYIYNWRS
UniProt Q8N5C7: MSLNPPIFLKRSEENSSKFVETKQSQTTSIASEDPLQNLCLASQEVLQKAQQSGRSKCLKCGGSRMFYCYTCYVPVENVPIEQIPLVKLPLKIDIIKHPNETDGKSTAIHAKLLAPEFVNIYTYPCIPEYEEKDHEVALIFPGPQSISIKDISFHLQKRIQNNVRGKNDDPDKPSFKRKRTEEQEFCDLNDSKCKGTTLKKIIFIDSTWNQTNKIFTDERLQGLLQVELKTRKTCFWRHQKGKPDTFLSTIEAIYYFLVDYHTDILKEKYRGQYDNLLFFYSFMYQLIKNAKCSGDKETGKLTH
UniProt Q7RTS9: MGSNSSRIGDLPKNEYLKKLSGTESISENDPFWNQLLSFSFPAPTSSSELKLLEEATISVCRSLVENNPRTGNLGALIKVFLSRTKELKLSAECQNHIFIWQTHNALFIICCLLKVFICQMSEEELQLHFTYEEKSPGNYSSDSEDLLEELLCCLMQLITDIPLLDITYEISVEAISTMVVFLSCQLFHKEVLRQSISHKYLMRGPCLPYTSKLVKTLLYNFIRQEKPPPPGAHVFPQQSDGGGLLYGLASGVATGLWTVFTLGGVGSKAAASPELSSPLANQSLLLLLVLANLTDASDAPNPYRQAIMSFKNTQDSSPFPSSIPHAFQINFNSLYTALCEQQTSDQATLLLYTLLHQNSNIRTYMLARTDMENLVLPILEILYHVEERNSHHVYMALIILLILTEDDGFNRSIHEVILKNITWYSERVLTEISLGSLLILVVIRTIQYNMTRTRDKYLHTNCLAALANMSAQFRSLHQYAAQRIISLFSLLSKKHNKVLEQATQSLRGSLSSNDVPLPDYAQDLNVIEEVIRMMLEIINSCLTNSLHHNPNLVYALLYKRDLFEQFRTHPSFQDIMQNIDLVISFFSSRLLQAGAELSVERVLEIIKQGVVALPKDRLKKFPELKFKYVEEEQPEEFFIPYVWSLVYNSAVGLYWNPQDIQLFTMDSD
UniProt Q8NBA8: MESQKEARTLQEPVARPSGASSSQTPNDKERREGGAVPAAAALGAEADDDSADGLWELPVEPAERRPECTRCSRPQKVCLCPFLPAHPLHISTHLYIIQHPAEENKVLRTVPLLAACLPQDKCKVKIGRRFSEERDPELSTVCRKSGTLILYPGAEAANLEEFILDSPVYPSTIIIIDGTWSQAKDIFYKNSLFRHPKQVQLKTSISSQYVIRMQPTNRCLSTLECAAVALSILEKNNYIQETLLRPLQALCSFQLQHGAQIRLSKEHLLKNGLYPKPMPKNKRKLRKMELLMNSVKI
UniProt Q9Y2G8: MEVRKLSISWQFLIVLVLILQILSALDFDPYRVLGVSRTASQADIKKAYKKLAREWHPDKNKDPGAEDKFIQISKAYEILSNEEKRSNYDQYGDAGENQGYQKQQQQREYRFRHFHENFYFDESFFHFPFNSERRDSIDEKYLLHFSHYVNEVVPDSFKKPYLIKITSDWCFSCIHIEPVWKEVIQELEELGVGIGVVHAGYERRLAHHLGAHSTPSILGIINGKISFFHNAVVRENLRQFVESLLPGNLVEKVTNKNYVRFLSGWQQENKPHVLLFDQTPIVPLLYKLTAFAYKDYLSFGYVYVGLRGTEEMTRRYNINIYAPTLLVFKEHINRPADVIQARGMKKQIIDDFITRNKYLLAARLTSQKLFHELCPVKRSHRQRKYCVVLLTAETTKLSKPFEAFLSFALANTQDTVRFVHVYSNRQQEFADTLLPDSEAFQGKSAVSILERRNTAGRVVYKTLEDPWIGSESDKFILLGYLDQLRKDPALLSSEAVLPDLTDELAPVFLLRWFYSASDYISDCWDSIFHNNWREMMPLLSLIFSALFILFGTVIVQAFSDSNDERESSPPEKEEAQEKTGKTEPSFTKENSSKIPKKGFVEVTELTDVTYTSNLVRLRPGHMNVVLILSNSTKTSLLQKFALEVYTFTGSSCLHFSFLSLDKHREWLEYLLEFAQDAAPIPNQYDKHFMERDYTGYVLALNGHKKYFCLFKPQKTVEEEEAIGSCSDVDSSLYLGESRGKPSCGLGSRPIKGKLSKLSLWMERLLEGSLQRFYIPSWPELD
UniProt Q6P2E9: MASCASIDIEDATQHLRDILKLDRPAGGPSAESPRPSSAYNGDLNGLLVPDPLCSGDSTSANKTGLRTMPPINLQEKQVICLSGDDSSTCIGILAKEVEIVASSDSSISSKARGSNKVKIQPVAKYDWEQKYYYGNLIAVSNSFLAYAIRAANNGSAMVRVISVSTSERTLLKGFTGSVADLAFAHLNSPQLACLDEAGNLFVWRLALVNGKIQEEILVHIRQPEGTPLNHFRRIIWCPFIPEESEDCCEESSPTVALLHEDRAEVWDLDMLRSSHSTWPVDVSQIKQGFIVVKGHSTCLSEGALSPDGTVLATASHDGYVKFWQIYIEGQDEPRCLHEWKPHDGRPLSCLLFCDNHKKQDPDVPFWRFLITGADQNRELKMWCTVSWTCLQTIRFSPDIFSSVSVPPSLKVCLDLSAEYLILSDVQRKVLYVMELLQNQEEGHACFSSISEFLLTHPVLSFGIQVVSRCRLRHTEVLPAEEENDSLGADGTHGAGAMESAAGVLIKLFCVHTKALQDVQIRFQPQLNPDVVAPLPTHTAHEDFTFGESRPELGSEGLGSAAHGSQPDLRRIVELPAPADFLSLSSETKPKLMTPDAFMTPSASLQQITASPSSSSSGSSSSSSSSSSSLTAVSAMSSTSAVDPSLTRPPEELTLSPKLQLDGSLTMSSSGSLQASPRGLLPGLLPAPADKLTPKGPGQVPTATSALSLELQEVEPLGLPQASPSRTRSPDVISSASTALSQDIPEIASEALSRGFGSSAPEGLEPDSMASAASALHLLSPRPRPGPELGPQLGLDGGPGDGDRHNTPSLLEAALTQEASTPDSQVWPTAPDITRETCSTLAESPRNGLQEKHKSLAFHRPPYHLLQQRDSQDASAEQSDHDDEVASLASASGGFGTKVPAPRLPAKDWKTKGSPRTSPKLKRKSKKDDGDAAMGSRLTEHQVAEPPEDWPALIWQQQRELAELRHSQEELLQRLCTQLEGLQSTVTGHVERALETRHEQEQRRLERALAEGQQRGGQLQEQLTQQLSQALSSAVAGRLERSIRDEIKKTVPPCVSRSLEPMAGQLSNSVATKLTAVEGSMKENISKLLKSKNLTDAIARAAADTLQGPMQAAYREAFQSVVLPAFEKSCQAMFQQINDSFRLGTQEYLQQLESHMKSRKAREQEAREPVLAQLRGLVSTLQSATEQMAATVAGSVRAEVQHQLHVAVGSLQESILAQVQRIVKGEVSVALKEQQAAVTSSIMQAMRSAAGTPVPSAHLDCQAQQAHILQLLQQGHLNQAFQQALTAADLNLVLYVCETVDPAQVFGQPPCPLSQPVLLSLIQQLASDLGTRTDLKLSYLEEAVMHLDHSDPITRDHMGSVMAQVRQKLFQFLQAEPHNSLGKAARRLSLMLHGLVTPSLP
UniProt Q99848: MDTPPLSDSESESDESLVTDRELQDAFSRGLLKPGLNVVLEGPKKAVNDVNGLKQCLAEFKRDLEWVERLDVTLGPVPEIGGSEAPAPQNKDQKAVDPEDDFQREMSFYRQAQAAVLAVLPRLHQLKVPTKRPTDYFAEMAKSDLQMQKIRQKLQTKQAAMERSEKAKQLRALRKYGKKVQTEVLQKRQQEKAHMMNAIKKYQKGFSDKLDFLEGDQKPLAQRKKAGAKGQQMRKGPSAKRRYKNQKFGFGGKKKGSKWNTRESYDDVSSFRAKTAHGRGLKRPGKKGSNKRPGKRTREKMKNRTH
UniProt Q66K89: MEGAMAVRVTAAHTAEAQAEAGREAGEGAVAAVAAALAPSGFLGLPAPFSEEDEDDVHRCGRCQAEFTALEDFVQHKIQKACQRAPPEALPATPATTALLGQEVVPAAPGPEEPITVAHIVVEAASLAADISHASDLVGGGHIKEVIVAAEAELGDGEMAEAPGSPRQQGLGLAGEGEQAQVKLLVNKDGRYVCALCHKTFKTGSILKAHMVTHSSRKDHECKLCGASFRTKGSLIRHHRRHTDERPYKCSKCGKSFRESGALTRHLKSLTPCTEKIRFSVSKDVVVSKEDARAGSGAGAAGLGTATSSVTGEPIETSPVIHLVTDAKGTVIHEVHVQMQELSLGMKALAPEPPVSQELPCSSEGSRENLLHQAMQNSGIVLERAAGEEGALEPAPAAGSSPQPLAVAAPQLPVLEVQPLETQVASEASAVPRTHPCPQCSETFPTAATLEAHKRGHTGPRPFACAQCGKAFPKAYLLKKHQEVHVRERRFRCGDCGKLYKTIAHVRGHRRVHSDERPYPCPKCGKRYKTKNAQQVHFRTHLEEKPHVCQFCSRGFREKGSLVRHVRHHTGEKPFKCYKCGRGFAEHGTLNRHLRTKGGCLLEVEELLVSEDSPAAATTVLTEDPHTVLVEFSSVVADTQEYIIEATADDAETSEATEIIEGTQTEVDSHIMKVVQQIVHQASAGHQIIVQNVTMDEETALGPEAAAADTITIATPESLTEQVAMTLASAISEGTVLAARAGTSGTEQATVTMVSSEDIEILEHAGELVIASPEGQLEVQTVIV
UniProt Q96KC8: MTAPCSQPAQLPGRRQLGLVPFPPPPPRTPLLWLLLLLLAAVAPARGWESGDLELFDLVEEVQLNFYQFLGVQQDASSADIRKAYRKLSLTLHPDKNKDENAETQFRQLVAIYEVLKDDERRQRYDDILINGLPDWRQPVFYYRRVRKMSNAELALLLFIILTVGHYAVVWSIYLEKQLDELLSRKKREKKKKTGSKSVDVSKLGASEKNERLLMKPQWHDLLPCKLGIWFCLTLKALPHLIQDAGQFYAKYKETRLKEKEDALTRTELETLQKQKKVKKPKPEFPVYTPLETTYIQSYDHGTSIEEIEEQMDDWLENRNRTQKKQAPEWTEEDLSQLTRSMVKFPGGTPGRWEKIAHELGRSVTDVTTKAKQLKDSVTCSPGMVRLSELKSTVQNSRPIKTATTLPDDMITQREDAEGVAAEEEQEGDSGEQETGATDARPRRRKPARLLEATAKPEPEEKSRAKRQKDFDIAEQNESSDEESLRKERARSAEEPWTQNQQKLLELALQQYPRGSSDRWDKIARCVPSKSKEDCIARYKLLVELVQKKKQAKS
UniProt Q9BU89: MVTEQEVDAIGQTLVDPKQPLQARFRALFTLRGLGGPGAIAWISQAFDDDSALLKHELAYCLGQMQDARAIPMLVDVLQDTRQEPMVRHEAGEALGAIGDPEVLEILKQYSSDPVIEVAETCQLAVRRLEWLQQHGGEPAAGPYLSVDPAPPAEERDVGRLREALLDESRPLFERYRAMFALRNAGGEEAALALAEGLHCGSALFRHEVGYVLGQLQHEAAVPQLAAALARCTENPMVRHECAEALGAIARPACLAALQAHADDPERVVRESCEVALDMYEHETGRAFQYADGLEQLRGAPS

Experiments:
Test in all cases: log2 fold change, soluble protein after heating vs DMSO (PISA); higher = thermal stabilisation; K562 cells, 10 uM, 30 min; active = over 0.2 and 3.5 SD of the protein, either way, in both replicates (recomputed)
[1] = compound: CS(=O)(=O)c1ccc(-c2cnc(N)c(C(=O)Nc3ccccc3)n2)cc1
How it was run: (§1)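 K562 cells at 2×10^6 cells/mL were treated for 30 min with 10 μM compound, and aliquots were heated for 3 min over 48°C-58°C before pooling. Extraction used PBS with 0.5% NP-40 at 4°C, and soluble protein was the supernatant after 21,000xg for 90 min, measured by TMTpro 16plex LC-MS/MS with channel sums equalised. Thermal stability values, relative to control samples and from duplicates, are log2 fold changes.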

[2] = compound: C[C@@H](Oc1cc(-c2cnn(C3CCNCC3)c2)cnc1N)c1c(Cl)ccc(F)c1Cl [crizotinib]
How it was run: as §1

[3] = compound: C[C@@H]1COCCN1C2=NC(=NC(=C2)C3(CC3)S(=O)(=O)C)C4=C5C=CNC5=CC=C4
How it was run: as §1

[4] = compound: C[C@H](C1=CC=C(C=C1)C(=O)NC2=C3C=CNC3=NC=C2)N
How it was run: as §1

[5] = compound: C[C@H](Nc1ncnc2nc[nH]c12)c1cc2cccc(Cl)c2c(=O)n1-c1ccccc1 [duvelisib]
How it was run: as §1

[6] = compound: Cc1cc(Nc2cc(CN3CCOCC3)c3nc(C)c(Cc4ccc(Cl)cc4F)n3n2)n[nH]1 [gandotinib]
How it was run: as §1

[7] = compound: Cc1cc(Nc2cc(N3CCN(C)CC3)nc(Sc3ccc(NC(=O)C4CC4)cc3)n2)n[nH]1 [tozasertib]
How it was run: as §1

[8] = compound: Cc1cc(SCc2sc(-c3ccc(C(F)(F)F)cc3)nc2C)ccc1OCC(=O)O
How it was run: as §1

[9] = compound: Cc1ccc(-n2nc(C(C)(C)C)cc2NC(=O)Nc2ccc(OCCN3CCOCC3)c3ccccc23)cc1 [doramapimod]
How it was run: as §1

[10] = compound: Cc1ccc(C(=O)N(CCCN)[C@@H](c2nc3cc(Cl)ccc3c(=O)n2Cc2ccccc2)C(C)C)cc1 [ispinesib]
How it was run: as §1

[11] = compound: Cc1ccc(NC(=O)c2ccc(CN3CC[C@H](N(C)C)C3)c(C(F)(F)F)c2)cc1Nc1nccc(-c2cncnc2)n1 [bafetinib]
How it was run: as §1

[12] = compound: Cc1cccc(CC(=O)N2CCc3c2ccc(-c2cn(C)c4ncnc(N)c24)c3F)n1
How it was run: as §1

[13] = compound: Cc1cn(-c2cc(NC(=O)c3ccc(C)c(Nc4nccc(-c5cccnc5)n4)c3)cc(C(F)(F)F)c2)cn1 [nilotinib]
How it was run: as §1

[14] = compound: Cc1nc(Nc2n[nH]c3c2CN(C(=O)N[C@H](CN(C)C)c2ccccc2)C3(C)C)c2sccc2n1
How it was run: as §1

[15] = compound: Cc1nc(Nc2ncc(C(=O)Nc3c(C)cccc3Cl)s2)cc(N2CCN(CCO)CC2)n1 [dasatinib]
How it was run: as §1

[16] = compound: Cc1ncc(-c2ccnc(Nc3ccc(S(C)(=O)=O)cc3)n2)n1C(C)C
How it was run: as §1

[17] = compound: Cn1cc(-c2ccc3c(c2)CCN3C(=O)Cc2cccc(C(F)(F)F)c2)c2c(N)ncnc21
How it was run: as §1

[18] = compound: Cn1cc(-c2ccc3nnc(C(F)(F)c4ccc5ncccc5c4)n3n2)cn1
How it was run: as §1

[19] = compound: Cn1cncc1[C@@](N)(c1ccc(Cl)cc1)c1ccc2c(c1)c(-c1cccc(Cl)c1)cc(=O)n2C [tipifarnib]
How it was run: as §1

[20] = compound: FC(F)(F)c1ccc(/C=C/c2nc(COc3ccc(CCCCn4ccnn4)cc3)co2)cc1 [mubritinib]
How it was run: as §1

Target | log2 fold change [1] | log2 fold change [2] | log2 fold change [3] | log2 fold change [4] | log2 fold change [5] | log2 fold change [6] | log2 fold change [7] | log2 fold change [8] | log2 fold change [9] | log2 fold change [10] | log2 fold change [11] | log2 fold change [12] | log2 fold change [13] | log2 fold change [14] | log2 fold change [15] | log2 fold change [16] | log2 fold change [17] | log2 fold change [18] | log2 fold change [19] | log2 fold change [20]
DNAJC12 (UniProt Q9UKB3) | inactive: 0.029 | inactive: 0.049 | inactive: 0.043 | inactive: 0.006 | inactive: 0.043 | inactive: -0.081 | inactive: 0.039 | inactive: -0.046 | inactive: -0.012 | inactive: 0.097 | inactive: -0.069 | inactive: 0.006 | inactive: -0.005 | inactive: 0.015 | inactive: 0.021 | inactive: -0.024 | inactive: -0.019 | inactive: -0.012 | inactive: 0.006 | inactive: 0.039
DTD1 (UniProt Q8TEA8) | inactive: -0.062 | inactive: 0.046 | inactive: 0.021 | inactive: 0.048 | inactive: 0.047 | inactive: -0.058 | inactive: -0.054 | inactive: 0 | inactive: -0.035 | inactive: 0.071 | inactive: -0.035 | inactive: 0.202 | inactive: -0.003 | inactive: -0.012 | inactive: 0.01 | inactive: 0.002 | inactive: 0.031 | inactive: 0.034 | inactive: -0.023 | inactive: 0.047
DONSON (UniProt Q9NYP3) | inactive: 0.033 | inactive: -0.343 | inactive: -0.352 | inactive: 0.027 | inactive: -0.26 | inactive: -0.297 | inactive: -0.088 | inactive: -0.304 | inactive: -0.071 | inactive: -0.02 | – | inactive: -0.104 | inactive: 0.121 | inactive: -0.215 | inactive: 0.053 | inactive: -0.614 | inactive: -0.048 | inactive: -0.378 | – | –
EAF1 (UniProt Q96JC9) | inactive: 0.032 | inactive: 0.078 | inactive: 0.13 | inactive: -0.034 | inactive: 0.093 | inactive: -0.002 | inactive: -0.029 | inactive: -0.095 | inactive: 0 | inactive: -0.005 | inactive: -0.105 | inactive: -0.107 | inactive: 0.069 | inactive: 0.02 | inactive: 0.038 | inactive: 0.041 | inactive: -0.058 | inactive: -0.025 | inactive: 0.077 | inactive: 0.041
DTWD1 (UniProt Q8N5C7) | inactive: 0.053 | inactive: 0.067 | inactive: 0.061 | inactive: 0.014 | – | inactive: 0.098 | – | inactive: 0.012 | inactive: 0.009 | inactive: -0.001 | inactive: 0.006 | inactive: -0.014 | inactive: 0.057 | inactive: 0 | inactive: 0.001 | inactive: 0.082 | inactive: 0.051 | inactive: -0.027 | inactive: -0.02 | inactive: 0.02
DYM (UniProt Q7RTS9) | inactive: -0.035 | inactive: -0.251 | inactive: 0.031 | inactive: 0.367 | – | inactive: -0.218 | inactive: 0.025 | – | inactive: -0.062 | inactive: -0.026 | inactive: 0.051 | inactive: 0.017 | inactive: -0.009 | inactive: -0.069 | – | inactive: -0.009 | inactive: 0.169 | inactive: -0.094 | inactive: -0.126 | inactive: 0.024
DTWD2 (UniProt Q8NBA8) | inactive: 0.06 | inactive: 0.133 | inactive: 0.137 | inactive: -0.103 | – | inactive: 0.027 | – | inactive: 0 | inactive: 0.009 | inactive: -0.092 | inactive: -0.023 | inactive: -0.008 | inactive: 0.065 | inactive: -0.019 | inactive: 0.126 | inactive: 0.022 | inactive: 0.215 | inactive: 0.096 | inactive: -0.071 | inactive: -0.087
DNTTIP2 (UniProt Q5QJE6) | inactive: 0.012 | inactive: -0.028 | inactive: -0.051 | inactive: 0.268 | – | inactive: 0.107 | – | inactive: 0.052 | inactive: 0.129 | inactive: -0.093 | inactive: 0.148 | inactive: -0.05 | inactive: 0.064 | inactive: -0.02 | inactive: 0.148 | inactive: -0.29 | inactive: -0.104 | inactive: -0.035 | inactive: 0.256 | inactive: -0.074
DPH5 isoform 5 (UniProt Q9H2P9) | inactive: 0.017 | inactive: 0.092 | inactive: 0.072 | inactive: -0.046 | – | inactive: -0.011 | – | inactive: -0.01 | inactive: -0.025 | inactive: 0.076 | inactive: 0.025 | inactive: 0.037 | inactive: 0.013 | inactive: -0.023 | active: 0.253 | inactive: 0.003 | inactive: 0.085 | inactive: 0.006 | inactive: -0.121 | inactive: 0.049
DOP1B (UniProt Q9Y3R5) | inactive: -0.052 | inactive: 0.226 | inactive: 0.081 | inactive: 0.147 | – | inactive: 0.299 | inactive: -0.182 | – | inactive: 0.239 | inactive: -0.063 | inactive: -0.123 | inactive: -0.014 | inactive: -0.241 | inactive: -0.105 | – | inactive: 0.143 | inactive: -0.034 | inactive: 0.21 | – | inactive: 0.156
DNAJC16 (UniProt Q9Y2G8) | inactive: 0.05 | inactive: 0.026 | inactive: -0.076 | inactive: 0.263 | inactive: 0.034 | inactive: -0.026 | inactive: 0.001 | inactive: -0.143 | inactive: -0.001 | – | inactive: 0.08 | inactive: -0.043 | inactive: -0.235 | inactive: -0.017 | inactive: -0.005 | inactive: 0.053 | inactive: -0.055 | – | inactive: -0.029 | –
EDC4 (UniProt Q6P2E9) | inactive: -0.064 | inactive: 0.179 | inactive: 0.003 | inactive: -0.092 | – | inactive: -0.18 | – | inactive: 0.033 | inactive: 0.005 | inactive: -0.031 | inactive: 0.006 | inactive: 0 | inactive: 0.013 | inactive: -0.077 | inactive: -0.018 | inactive: -0.119 | inactive: -0.046 | inactive: -0.031 | inactive: -0.038 | inactive: -0.019
EBNA1BP2 (UniProt Q99848) | inactive: -0.013 | inactive: -0.025 | inactive: -0.236 | inactive: 0.394 | – | inactive: 0.104 | – | inactive: 0.025 | inactive: 0.282 | inactive: 0.21 | inactive: 0.312 | inactive: -0.114 | inactive: 0.114 | inactive: -0.089 | inactive: 0.226 | inactive: -0.004 | inactive: -0.499 | inactive: -0.176 | inactive: 0.134 | inactive: -0.124
DUS2 (UniProt Q9NX74) | inactive: -0.017 | inactive: 0.048 | inactive: 0.084 | inactive: 0.045 | – | inactive: 0.036 | – | inactive: 0.062 | inactive: -0.006 | inactive: 0.097 | inactive: -0.017 | inactive: -0.025 | inactive: -0.243 | inactive: -0.032 | inactive: -0.07 | inactive: 0.014 | inactive: -0.072 | inactive: 0.01 | inactive: 0.094 | inactive: 0.045
E2F3 (UniProt O00716) | inactive: 0.029 | inactive: -0.107 | inactive: 0.054 | inactive: 0.006 | – | inactive: -0.163 | inactive: -0.019 | – | inactive: 0.011 | inactive: -0.094 | inactive: 0.015 | inactive: -0.03 | inactive: 0.033 | inactive: 0.113 | – | inactive: -0.165 | inactive: -0.117 | inactive: -0.079 | – | inactive: -0.032
E4F1 (UniProt Q66K89) | inactive: -0.558 | inactive: 0.194 | inactive: -0.112 | inactive: -0.021 | inactive: -0.225 | inactive: 0.213 | inactive: -0.006 | inactive: -0.008 | inactive: 0.087 | inactive: -0.064 | inactive: -0.139 | inactive: 0.208 | – | – | inactive: 0.117 | – | inactive: -0.012 | inactive: -0.408 | inactive: 0.148 | inactive: -0.039
DNAJC1 (UniProt Q96KC8) | inactive: -0.021 | inactive: -0.148 | inactive: 0.009 | inactive: 0.023 | – | inactive: -0.094 | – | inactive: 0.009 | inactive: 0.002 | active: -0.356 | inactive: -0.185 | inactive: -0.026 | inactive: -0.035 | inactive: 0.016 | inactive: -0.064 | inactive: 0.002 | inactive: 0.028 | inactive: 0.047 | inactive: 0.039 | inactive: 0.041
DOHH (UniProt Q9BU89) | inactive: 0.049 | inactive: 0.06 | inactive: 0.287 | inactive: -0.154 | – | inactive: 0.029 | – | inactive: 0.022 | inactive: 0.005 | inactive: -0.015 | active: 0.653 | inactive: 0.008 | inactive: 0.035 | inactive: -0.169 | inactive: 0.013 | inactive: -0.054 | inactive: -0.089 | inactive: 0.022 | inactive: 0.014 | inactive: 0.03

Not a retest: entries from further up.
Target | log2 fold change [1] | log2 fold change [2] | log2 fold change [3] | log2 fold change [4] | log2 fold change [5] | log2 fold change [6] | log2 fold change [7] | log2 fold change [8] | log2 fold change [9] | log2 fold change [10] | log2 fold change [11] | log2 fold change [12] | log2 fold change [13] | log2 fold change [14] | log2 fold change [15] | log2 fold change [16] | log2 fold change [17] | log2 fold change [18] | log2 fold change [19] | log2 fold change [20]
EAF1 (UniProt Q96JC9) | inactive: 0.032 | inactive: 0.078 | inactive: 0.13 | inactive: -0.034 | inactive: 0.093 | inactive: -0.002 | inactive: -0.029 | inactive: -0.095 | inactive: 0 | inactive: -0.005 | inactive: -0.105 | inactive: -0.107 | inactive: 0.069 | inactive: 0.02 | inactive: 0.038 | inactive: 0.041 | inactive: -0.058 | inactive: -0.025 | inactive: 0.077 | inactive: 0.041
DTWD1 (UniProt Q8N5C7) | inactive: 0.053 | inactive: 0.067 | inactive: 0.061 | inactive: 0.014 | – | inactive: 0.098 | – | inactive: 0.012 | inactive: 0.009 | inactive: -0.001 | inactive: 0.006 | inactive: -0.014 | inactive: 0.057 | inactive: 0 | inactive: 0.001 | inactive: 0.082 | inactive: 0.051 | inactive: -0.027 | inactive: -0.02 | inactive: 0.02
